The supplement of paper PMC10849652
The other results are listed elsewhere or left out.

The chains behind the UniProt entries cited, without tags or fusion partners. Where a name states a change or a piece, a line headed by the entry shows the natural chain unless it says otherwise.
UniProt Q7Z4V5: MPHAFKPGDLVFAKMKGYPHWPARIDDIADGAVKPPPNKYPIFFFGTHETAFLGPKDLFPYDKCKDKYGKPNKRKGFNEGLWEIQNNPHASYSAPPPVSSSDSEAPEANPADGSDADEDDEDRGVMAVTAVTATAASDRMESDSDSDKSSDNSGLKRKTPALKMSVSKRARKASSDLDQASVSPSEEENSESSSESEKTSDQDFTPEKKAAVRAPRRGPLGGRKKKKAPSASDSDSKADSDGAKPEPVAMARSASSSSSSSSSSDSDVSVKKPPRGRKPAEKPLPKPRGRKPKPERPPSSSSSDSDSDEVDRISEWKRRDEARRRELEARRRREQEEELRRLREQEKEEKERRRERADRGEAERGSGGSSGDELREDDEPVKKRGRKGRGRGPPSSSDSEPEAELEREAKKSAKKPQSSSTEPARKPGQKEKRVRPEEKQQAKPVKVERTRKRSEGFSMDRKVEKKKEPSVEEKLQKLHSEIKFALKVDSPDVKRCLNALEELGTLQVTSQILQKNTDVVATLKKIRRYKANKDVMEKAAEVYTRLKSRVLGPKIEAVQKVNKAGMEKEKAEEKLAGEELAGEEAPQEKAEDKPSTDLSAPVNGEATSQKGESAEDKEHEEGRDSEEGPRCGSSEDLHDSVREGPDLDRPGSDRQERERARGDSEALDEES
UniProt P69891: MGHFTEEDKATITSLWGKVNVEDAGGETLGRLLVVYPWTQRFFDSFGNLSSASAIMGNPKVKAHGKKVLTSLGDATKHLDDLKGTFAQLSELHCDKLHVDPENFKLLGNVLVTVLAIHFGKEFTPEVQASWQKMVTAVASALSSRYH
UniProt P02042: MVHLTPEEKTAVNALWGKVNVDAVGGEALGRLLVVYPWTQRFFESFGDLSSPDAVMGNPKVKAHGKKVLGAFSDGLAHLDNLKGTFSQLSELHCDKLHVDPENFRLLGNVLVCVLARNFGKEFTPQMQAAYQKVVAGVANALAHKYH
UniProt Q9P0R6: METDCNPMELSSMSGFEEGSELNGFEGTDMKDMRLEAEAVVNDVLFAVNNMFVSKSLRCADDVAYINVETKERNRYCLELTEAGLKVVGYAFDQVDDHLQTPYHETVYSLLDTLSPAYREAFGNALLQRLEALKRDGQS
UniProt Q16836: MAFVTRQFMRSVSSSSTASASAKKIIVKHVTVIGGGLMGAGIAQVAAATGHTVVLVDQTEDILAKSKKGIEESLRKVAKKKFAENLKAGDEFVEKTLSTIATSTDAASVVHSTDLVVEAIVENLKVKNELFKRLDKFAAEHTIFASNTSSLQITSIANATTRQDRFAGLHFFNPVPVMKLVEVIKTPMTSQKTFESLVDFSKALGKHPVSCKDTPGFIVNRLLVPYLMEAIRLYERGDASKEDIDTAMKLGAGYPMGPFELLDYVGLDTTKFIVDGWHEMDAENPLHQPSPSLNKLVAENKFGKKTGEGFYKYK
UniProt Q9NVX0: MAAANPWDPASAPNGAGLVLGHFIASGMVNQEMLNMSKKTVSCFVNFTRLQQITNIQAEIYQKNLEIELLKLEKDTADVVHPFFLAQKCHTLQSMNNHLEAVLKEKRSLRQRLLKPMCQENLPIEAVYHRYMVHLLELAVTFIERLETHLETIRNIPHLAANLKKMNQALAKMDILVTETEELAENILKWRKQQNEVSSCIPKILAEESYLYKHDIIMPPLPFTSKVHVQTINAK
UniProt P69892: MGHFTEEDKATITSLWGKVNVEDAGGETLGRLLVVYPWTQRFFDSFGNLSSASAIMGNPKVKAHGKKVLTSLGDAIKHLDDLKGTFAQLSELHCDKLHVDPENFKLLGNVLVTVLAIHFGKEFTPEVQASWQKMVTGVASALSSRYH
UniProt P13807: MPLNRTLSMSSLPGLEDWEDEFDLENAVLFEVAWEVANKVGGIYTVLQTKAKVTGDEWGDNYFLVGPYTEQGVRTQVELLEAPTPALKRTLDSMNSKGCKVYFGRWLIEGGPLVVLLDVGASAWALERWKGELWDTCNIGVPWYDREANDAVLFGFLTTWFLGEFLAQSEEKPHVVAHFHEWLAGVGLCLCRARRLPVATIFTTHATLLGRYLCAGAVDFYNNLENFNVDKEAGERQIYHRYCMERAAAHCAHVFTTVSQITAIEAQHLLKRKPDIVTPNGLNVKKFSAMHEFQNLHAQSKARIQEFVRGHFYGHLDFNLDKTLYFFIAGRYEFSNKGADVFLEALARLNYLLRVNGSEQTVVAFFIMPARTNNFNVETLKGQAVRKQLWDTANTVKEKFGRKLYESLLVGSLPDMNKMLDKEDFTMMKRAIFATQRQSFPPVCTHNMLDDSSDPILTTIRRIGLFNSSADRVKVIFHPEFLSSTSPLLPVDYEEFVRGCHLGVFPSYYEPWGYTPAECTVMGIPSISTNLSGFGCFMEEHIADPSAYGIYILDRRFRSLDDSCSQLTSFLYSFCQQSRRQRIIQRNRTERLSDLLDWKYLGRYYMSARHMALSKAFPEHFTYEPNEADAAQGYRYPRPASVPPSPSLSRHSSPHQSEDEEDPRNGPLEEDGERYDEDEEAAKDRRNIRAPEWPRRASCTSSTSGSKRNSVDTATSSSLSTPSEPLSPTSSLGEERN
UniProt P36969, whole entry, looked up: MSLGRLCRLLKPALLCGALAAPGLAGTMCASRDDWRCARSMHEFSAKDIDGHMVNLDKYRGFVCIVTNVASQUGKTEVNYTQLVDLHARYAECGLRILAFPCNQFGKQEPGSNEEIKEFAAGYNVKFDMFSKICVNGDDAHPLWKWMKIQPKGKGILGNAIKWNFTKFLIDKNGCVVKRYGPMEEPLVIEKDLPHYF
UniProt Q9Y450, whole entry, looked up: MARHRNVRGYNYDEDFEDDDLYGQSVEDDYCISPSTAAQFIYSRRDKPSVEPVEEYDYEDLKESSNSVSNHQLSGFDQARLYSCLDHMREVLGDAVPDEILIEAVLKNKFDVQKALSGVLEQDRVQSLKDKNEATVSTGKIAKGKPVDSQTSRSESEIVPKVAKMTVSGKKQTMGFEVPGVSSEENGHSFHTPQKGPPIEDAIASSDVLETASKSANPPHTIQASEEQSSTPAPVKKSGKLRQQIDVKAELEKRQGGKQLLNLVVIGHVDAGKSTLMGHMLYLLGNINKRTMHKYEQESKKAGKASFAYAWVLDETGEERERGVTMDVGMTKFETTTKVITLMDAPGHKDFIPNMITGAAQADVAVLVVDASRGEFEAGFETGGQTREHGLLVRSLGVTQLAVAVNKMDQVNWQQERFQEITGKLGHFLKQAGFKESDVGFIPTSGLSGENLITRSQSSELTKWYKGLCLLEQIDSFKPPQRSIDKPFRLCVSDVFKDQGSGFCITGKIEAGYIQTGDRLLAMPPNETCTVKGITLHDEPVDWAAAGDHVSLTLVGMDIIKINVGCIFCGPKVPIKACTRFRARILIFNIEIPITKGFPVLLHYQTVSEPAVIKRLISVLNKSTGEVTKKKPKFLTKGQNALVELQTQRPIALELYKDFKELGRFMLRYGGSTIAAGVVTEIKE
UniProt Q9UBQ7: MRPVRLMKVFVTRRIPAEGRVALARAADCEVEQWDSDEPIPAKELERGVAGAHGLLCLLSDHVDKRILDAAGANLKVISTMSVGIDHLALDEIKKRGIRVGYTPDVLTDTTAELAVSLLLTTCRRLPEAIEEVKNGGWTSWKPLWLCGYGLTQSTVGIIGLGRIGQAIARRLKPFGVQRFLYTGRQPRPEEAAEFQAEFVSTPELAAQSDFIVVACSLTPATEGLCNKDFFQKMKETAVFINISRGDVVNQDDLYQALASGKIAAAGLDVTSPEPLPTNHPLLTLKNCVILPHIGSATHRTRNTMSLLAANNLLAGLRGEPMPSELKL
UniProt Q68CZ6: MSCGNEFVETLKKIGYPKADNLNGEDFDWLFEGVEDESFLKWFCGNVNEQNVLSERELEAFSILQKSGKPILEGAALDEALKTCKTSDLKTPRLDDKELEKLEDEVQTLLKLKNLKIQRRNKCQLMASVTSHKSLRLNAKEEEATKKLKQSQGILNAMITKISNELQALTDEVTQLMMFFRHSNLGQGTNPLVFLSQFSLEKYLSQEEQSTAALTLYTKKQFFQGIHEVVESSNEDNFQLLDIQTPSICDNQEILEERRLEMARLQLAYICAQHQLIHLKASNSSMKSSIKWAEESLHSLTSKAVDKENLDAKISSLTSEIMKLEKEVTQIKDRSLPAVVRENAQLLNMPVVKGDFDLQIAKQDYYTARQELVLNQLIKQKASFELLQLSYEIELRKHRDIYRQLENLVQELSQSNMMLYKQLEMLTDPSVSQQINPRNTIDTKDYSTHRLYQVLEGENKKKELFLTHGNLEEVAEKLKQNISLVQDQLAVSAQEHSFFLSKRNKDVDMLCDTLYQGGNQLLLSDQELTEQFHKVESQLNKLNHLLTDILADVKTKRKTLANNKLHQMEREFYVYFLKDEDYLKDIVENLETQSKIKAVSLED
UniProt Q969F1: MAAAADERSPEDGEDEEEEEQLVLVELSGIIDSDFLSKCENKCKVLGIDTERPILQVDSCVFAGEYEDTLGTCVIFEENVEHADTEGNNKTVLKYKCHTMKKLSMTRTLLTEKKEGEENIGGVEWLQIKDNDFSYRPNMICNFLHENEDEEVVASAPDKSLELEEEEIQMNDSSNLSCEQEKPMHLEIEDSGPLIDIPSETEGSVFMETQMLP
UniProt P52655, whole entry, looked up: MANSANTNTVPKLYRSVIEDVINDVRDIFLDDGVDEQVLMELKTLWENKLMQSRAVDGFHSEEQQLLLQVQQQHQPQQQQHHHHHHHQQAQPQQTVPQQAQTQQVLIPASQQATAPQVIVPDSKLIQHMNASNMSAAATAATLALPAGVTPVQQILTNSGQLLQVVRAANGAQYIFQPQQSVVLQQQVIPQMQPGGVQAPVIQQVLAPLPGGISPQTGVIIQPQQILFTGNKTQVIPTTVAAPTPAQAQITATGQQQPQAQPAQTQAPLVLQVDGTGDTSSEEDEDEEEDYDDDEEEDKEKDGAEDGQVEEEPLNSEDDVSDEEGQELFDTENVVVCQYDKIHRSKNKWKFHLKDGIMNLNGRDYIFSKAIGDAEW
UniProt P0C0S5, whole entry, looked up: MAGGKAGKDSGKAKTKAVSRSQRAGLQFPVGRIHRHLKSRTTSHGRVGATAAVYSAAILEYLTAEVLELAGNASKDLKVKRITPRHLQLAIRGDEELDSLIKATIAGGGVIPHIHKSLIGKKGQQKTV
UniProt Q9H0R4: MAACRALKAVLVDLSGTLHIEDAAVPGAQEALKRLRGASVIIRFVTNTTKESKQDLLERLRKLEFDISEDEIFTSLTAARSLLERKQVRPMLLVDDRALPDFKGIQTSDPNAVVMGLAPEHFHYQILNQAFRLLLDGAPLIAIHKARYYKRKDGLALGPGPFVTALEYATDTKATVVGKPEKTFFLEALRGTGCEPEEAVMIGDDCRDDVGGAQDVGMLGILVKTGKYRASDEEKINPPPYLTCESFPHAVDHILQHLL
UniProt Q13547, whole entry, looked up: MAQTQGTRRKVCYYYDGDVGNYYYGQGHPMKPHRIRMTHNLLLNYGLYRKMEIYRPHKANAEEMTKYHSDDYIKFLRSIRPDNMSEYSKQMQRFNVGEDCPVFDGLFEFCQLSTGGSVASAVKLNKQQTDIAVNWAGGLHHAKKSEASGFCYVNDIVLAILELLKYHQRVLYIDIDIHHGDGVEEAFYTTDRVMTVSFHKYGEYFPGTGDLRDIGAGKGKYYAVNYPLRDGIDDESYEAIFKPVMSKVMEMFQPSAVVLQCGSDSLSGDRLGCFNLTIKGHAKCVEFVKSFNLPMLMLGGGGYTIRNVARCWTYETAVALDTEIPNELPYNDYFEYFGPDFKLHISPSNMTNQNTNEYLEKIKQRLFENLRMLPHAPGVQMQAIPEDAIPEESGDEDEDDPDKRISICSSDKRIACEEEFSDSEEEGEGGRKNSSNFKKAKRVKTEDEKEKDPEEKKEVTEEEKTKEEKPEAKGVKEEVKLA
UniProt P29084: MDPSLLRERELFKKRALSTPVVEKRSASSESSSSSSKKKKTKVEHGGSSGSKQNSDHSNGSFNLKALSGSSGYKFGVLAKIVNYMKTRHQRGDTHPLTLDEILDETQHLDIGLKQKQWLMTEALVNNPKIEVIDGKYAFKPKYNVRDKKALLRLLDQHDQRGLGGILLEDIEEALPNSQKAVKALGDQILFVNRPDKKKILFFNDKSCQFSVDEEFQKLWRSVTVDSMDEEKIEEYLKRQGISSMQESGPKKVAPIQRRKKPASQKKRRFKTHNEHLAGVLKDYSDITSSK
UniProt Q9BQ67, whole entry, looked up: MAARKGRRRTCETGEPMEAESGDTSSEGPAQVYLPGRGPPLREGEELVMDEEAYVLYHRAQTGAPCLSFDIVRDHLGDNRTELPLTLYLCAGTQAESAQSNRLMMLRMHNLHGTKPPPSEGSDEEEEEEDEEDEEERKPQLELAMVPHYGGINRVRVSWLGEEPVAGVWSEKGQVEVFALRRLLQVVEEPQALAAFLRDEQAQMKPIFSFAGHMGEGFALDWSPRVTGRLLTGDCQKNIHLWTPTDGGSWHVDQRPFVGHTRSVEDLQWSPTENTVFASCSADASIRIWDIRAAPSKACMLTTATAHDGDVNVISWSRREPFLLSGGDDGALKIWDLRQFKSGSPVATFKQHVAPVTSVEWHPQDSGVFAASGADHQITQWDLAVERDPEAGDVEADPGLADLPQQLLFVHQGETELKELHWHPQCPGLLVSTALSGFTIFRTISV

Compound: NC(=O)Nc1cc(-c2cccc(F)c2)sc1C(=O)N[C@H]1CCCNC1
Test: log2 fold change, soluble protein after heating vs DMSO (PISA); higher = thermal stabilisation; K562 lysate, 10 uM; active = over 0.2 and 3.5 SD of the protein, either way, in both replicates (recomputed)
Outline: (§1)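 The values are log-two fold changes in thermal stability compared with solvent controls and come from duplicates. They were obtained by TMTpro 16plex LC-MS/MS, with channel sums equalised, on the supernatant after 21,000xg for 90 min. That supernatant came from crude K562 extract at 1 mg/mL protein treated with 10 μM compound for 30 min, heated for 3 min across 48°C-58°C, pooled and brought to 0.5% NP-40 at 4°C.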

log2 fold change, inactive:
HAGH (UniProt Q16775) 0.045
HDGFL2 isoform 2 (UniProt Q7Z4V5) 0.011
GTPBP2 (UniProt Q9BX10) 0.042
H1FX (UniProt Q92522) 0.044
GSTZ1 (UniProt G3V4T6) 0.029
HBG1 (UniProt P69891) -0.023
H4C1 (UniProt P62805) -0.032
GSTO1 (UniProt P78417) -0.031
GSR (UniProt P00390) 0.028
HBD (UniProt P02042) -0.05
HADHA (UniProt P40939) -0.077
GSKIP (UniProt Q9P0R6) -0.038
HADH isoform 2 (UniProt Q16836) -0.006
GRAP2 (UniProt O75791) 0.008
HAUS2 (UniProt Q9NVX0) -0.014
HBG2 (UniProt P69892) -0.033
GTF3C3 (UniProt Q9Y5Q9) 0.031
GYS1 (UniProt P13807) 0.026
HADHB (UniProt P55084) -0.122
GPX4 (UniProt P36969) 0.02
HEATR1 (UniProt Q9H583) 0.067
HDLBP, A0A024R4E5 0.018
GTF2F2 (UniProt P13984) -0.013
GSTM3 (UniProt P21266) 0.075
HDAC3 (UniProt O15379) 0.038
GTF2H3 (UniProt Q13889) 0.063
HDAC6 (UniProt Q9UBN7) -0.01
HBS1L isoform 2 (UniProt Q9Y450) 0.073
GRHPR (UniProt Q9UBQ7) 0.014
HAUS3 (UniProt Q68CZ6) 0.017
GTF3C6 (UniProt Q969F1) -0.02
GTF2A1 (UniProt P52655) -0.04
H2AZ1 (UniProt P0C0S5) 0.03
GXYLT1 (UniProt Q4G148) -0.019
HDHD2 (UniProt Q9H0R4) 0
HDAC1 (UniProt Q13547) -0.033
HEATR5A (UniProt Q86XA9) 0.024
GTF2E2 (UniProt P29084) 0
GRWD1 (UniProt Q9BQ67) 0.016

Compound: NC(=O)c1cnc(N[C@@H]2CCCC[C@@H]2N)nc1Nc1cccc(-n2nccn2)c1
Test: as above
Outline: as §1

log2 fold change, inactive:
HAGH (UniProt Q16775) 0.01
HDGFL2 isoform 2 (UniProt Q7Z4V5) -0.001
GTPBP2 (UniProt Q9BX10) 0.04
H1FX (UniProt Q92522) -0.004
GSTZ1 (UniProt G3V4T6) -0.012
HBG1 (UniProt P69891) -0.021
H4C1 (UniProt P62805) 0.01
GSTO1 (UniProt P78417) 0.002
GSR (UniProt P00390) -0.042
HBD (UniProt P02042) -0.033
HADHA (UniProt P40939) -0.071
GSKIP (UniProt Q9P0R6) -0.072
HADH isoform 2 (UniProt Q16836) 0.029
GRAP2 (UniProt O75791) -0.005
HAUS2 (UniProt Q9NVX0) -0.094
HBG2 (UniProt P69892) -0.042
GTF3C3 (UniProt Q9Y5Q9) 0.009
GYS1 (UniProt P13807) -0.007
HADHB (UniProt P55084) -0.076
GPX4 (UniProt P36969) -0.011
HEATR1 (UniProt Q9H583) 0.005
HDLBP, A0A024R4E5 -0.002
GTF2F2 (UniProt P13984) -0.017
GSTM3 (UniProt P21266) 0.081
HDAC3 (UniProt O15379) -0.004
GTF2H3 (UniProt Q13889) 0.016
HDAC6 (UniProt Q9UBN7) 0.034
HBS1L isoform 2 (UniProt Q9Y450) -0.006
GRHPR (UniProt Q9UBQ7) 0.012
HAUS3 (UniProt Q68CZ6) -0.015
GTF3C6 (UniProt Q969F1) -0.027
GTF2A1 (UniProt P52655) 0.007
H2AZ1 (UniProt P0C0S5) -0.02
GXYLT1 (UniProt Q4G148) -0.007
HDHD2 (UniProt Q9H0R4) -0.013
HDAC1 (UniProt Q13547) 0.03
HEATR5A (UniProt Q86XA9) 0.012
GTF2E2 (UniProt P29084) -0.037
GRWD1 (UniProt Q9BQ67) 0.014
